From the supplement of paper PMC8728848
The list shows a part of the results.

Tests used:
Assay in all cases: glycan array binding signal (z-score within array); higher = stronger binding
Conditions in all cases: glycan notation: IUPAC condensed, linker removed
[1] = target: Fuc(a1-2)Gal
How it was run: (§1)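 The binding signal is a Z-score computed within each array and averaged over linkers. Arrays of the same protein sequence at different concentrations or buffers were also averaged together. Data originate from 3228 arrays in the Consortium for Functional Glycomics database, kept only where the protein sequence was available.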

[2] = target: Fuc(a1-2)Gal(b1-3)GalNAc
How it was run: as §1

[3] = target: Fuc(a1-2)Gal(b1-3)GalNAc(a1-3)[Fuc(a1-2)]Gal(b1-4)Glc
How it was run: as §1

[4] = target: Fuc(a1-2)Gal(b1-3)GalNAc(a1-3)[Fuc(a1-2)]Gal(b1-4)GlcNAc
How it was run: as §1

[5] = target: Fuc(a1-2)Gal(b1-3)GalNAc(b1-3)Gal
How it was run: as §1

[6] = target: Fuc(a1-2)Gal(b1-3)GalNAc(b1-3)Gal(a1-4)Gal(b1-4)Glc
How it was run: as §1

[7] = target: Fuc(a1-2)Gal(b1-3)GalNAc(b1-4)[Neu5Ac(a2-3)]Gal(b1-4)Glc
How it was run: as §1

[8] = target: Fuc(a1-2)Gal(b1-3)GlcNAc
How it was run: as §1

[9] = target: Fuc(a1-2)Gal(b1-3)GlcNAc(b1-2)Man(a1-3)[Fuc(a1-2)Gal(b1-3)GlcNAc(b1-2)Man(a1-6)]Man(b1-4)GlcNAc(b1-4)GlcNAc
How it was run: as §1

[10] = target: Fuc(a1-2)Gal(b1-3)GlcNAc(b1-2)Man(a1-3)[Fuc(a1-2)Gal(b1-3)GlcNAc(b1-2)Man(a1-6)]Man(b1-4)GlcNAc(b1-4)[Fuc(a1-6)]GlcNAc
How it was run: as §1

[11] = target: Fuc(a1-2)Gal(b1-3)GlcNAc(b1-3)Gal(b1-4)Glc
How it was run: as §1

[12] = target: Fuc(a1-2)Gal(b1-3)GlcNAc(b1-3)GalNAc
How it was run: as §1

[13] = target: Fuc(a1-2)Gal(b1-3)GlcNAc(b1-3)[Fuc(a1-2)Gal(b1-3)GlcNAc(b1-6)]GalNAc
How it was run: as §1

[14] = target: Fuc(a1-2)Gal(b1-3)GlcNAc(b1-3)[Gal(b1-4)GlcNAc(b1-6)]Gal(b1-4)Glc
How it was run: as §1

[15] = target: Fuc(a1-2)Gal(b1-3)GlcNAc(b1-3)[Neu5Ac(a2-6)Gal(b1-4)GlcNAc(b1-6)]Gal(b1-4)Glc
How it was run: as §1

[16] = target: Fuc(a1-2)Gal(b1-3)GlcNAc6S
How it was run: as §1

[17] = target: Fuc(a1-2)Gal(b1-3)[Fuc(a1-4)]GlcNAc
How it was run: as §1

[18] = target: Fuc(a1-2)Gal(b1-3)[Fuc(a1-4)]GlcNAc(b1-2)Man(a1-3)[Fuc(a1-2)Gal(b1-3)[Fuc(a1-4)]GlcNAc(b1-2)Man(a1-3)]Man(b1-4)GlcNAc(b1-4)GlcNAc
How it was run: as §1

[19] = target: Fuc(a1-2)Gal(b1-3)[Fuc(a1-4)]GlcNAc(b1-2)Man(a1-3)[Fuc(a1-2)Gal(b1-3)[Fuc(a1-4)]GlcNAc(b1-2)Man(a1-6)]Man(b1-4)GlcNAc(b1-4)[Fuc(a1-6)]GlcNAc(b1-4)[Fuc(a1-6)]GlcNAc
How it was run: as §1

[20] = target: Fuc(a1-2)Gal(b1-3)[Fuc(a1-4)]GlcNAc(b1-3)[Fuc(a1-3)[Gal(b1-4)]GlcNAc(b1-6)]Gal(b1-4)Glc
How it was run: as §1

[21] = target: Fuc(a1-2)Gal(b1-3)[Fuc(a1-4)]GlcNAc(b1-3)[Gal(b1-4)GlcNAc(b1-6)]Gal(b1-4)Glc
How it was run: as §1

[22] = target: Fuc(a1-2)Gal(b1-4)Fuc(a1-3)]GlcNAc(b1-2)Man(a1-3)[Fuc(a1-2)Gal(b1-4)[Fuc(a1-3)]GlcNAc(b1-2)Man(a1-6)]Man(b1-4)GlcNAc(b1-4)GlcNAc
How it was run: as §1

[23] = target: Fuc(a1-2)Gal(b1-4)Glc
How it was run: as §1

[24] = target: Fuc(a1-2)Gal(b1-4)Glc6S
How it was run: as §1

[25] = target: Fuc(a1-2)Gal(b1-4)GlcNAc
How it was run: as §1

[26] = target: Fuc(a1-2)Gal(b1-4)GlcNAc(b1-2)Man
How it was run: as §1

[27] = target: Fuc(a1-2)Gal(b1-4)GlcNAc(b1-2)Man(a1-3)[Fuc(a1-2)Gal(b1-4)GlcNAc(b1-2)Man(a1-6)]Man(b1-4)GlcNAc(b1-4)GlcNAc
How it was run: as §1

[28] = target: Fuc(a1-2)Gal(b1-4)GlcNAc(b1-2)Man(a1-3)[Fuc(a1-2)Gal(b1-4)GlcNAc(b1-2)Man(a1-6)]Man(b1-4)GlcNAc(b1-4)[Fuc(a1-6)]GlcNAc
How it was run: as §1

[29] = target: Fuc(a1-2)Gal(b1-4)GlcNAc(b1-2)[Fuc(a1-2)Gal(b1-4)GlcNAc(b1-4)]Man(a1-3)[Fuc(a1-2)Gal(b1-4)GlcNAc(b1-2)Man(a1-6)]Man(b1-4)GlcNAc(b1-4)GlcNAc
How it was run: as §1

[30] = target: Fuc(a1-2)Gal(b1-4)GlcNAc(b1-3)Gal(b1-4)GlcNAc
How it was run: as §1

B1: Tp0751, 83732 (protein)
chain: MSYYHHHHHHLESTSLYKKAGFQHGHVPPRRIPPHDTFGALPTAALPSNARDTAAHPSDTADNTSGSSTTTDPRSHGNAPPAPVGGAAQTHTQPPVQTAMRIALWNRATHGEQGALQHLLAGLWIQTEISPNSGDIHPLLFFDREHAEITFSRASVQEIFLVDSAHTHRKTVSFLTRNTAISSIRRRLEVTFESHEVIHVRAVEDVARLKIGSTSMWDGQYTRYHAGPASAPSP
In the case of B1, the “glycan array binding signal (z-score)” value [1] is reported as -0.265, the “glycan array binding signal (z-score)” value [2] is reported as -0.473 and the “glycan array binding signal (z-score)” value [3] is reported as -0.469. For the same binder, the “glycan array binding signal (z-score)” value [4] was -0.085, the “glycan array binding signal (z-score)” value [5] was 0.841 and the “glycan array binding signal (z-score)” value [6] was -0.023. For the same binder, the “glycan array binding signal (z-score)” value [7] was 0.023, the “glycan array binding signal (z-score)” value [8] was -0.361 and the “glycan array binding signal (z-score)” value [9] was -0.259. For the same binder, the “glycan array binding signal (z-score)” value [10] was -0.149, the “glycan array binding signal (z-score)” value [11] was -0.349 and the “glycan array binding signal (z-score)” value [12] was -0.189. For the same binder, the “glycan array binding signal (z-score)” value [13] was -0.266, the “glycan array binding signal (z-score)” value [14] was -0.289 and the “glycan array binding signal (z-score)” value [15] was -0.484. The “glycan array binding signal (z-score)” value [16] was 0.951, the “glycan array binding signal (z-score)” value [17] was -0.067 and the “glycan array binding signal (z-score)” value [18] was 0.093. For the same binder, the “glycan array binding signal (z-score)” value [19] was -0.103, the “glycan array binding signal (z-score)” value [20] was -0.049 and the “glycan array binding signal (z-score)” value [21] was -0.218. For the same binder, the “glycan array binding signal (z-score)” value [22] was 0.856, the “glycan array binding signal (z-score)” value [23] was 0.269 and the “glycan array binding signal (z-score)” value [24] was -0.309. For the same binder, the “glycan array binding signal (z-score)” value [25] was -0.115, the “glycan array binding signal (z-score)” value [26] was 0.088 and the “glycan array binding signal (z-score)” value [27] was -0.572. For the same binder, the “glycan array binding signal (z-score)” value [28] was 1.64, the “glycan array binding signal (z-score)” value [29] was -0.339 and the “glycan array binding signal (z-score)” value [30] was -0.218.
